PubChem BioAssay AID248 (DTP/NCI, 2004)
The list does not hold the whole screen: it is rich in T/C values a quarter to a half above the control, in often repeated tests (any T/C) and in doses without a T/C. Further doses and runs are listed elsewhere. T/C: endpoint of the treated group in % of that of the vehicle group. Some entries give survivors of the animals treated and no T/C: the source holds a T/C of zero for them, seemingly a mark for toxic or unscored doses. Some doses without a T/C left all or most animals alive at the check, yet need not have been tolerated: survival well below the control is almost never listed, so the zero probably covers shortened survival too. Counts of survivors are from the toxicity check (mostly the fifth day) where no day follows; animals may have died later. Schedules are NCI's codes, taken here to give the interval after Q, in days (D) or hours (H), and the number of doses after X. Additions like (4×) say how often a value occurs here. Some schedule codes hold Z or #, which are not explained here. Some entries hold several experiments; the values are given in rising order. For survival time, the PubChem record calls one and a half times the control and up active, and a quarter to a half above the control has no call in these data; cut-offs in other NCI protocols can differ. Some T/C values carry the count of animals alive at the toxicity check (mostly the fifth day); where none is given, no animal had died by that day.

Test system: L1210 leukemia ip in BDF1 mice, survival T/C
Test: NCI In Vivo Anticancer Drug Screen. Data for tumor model L1210 Leukemia (intraperitoneal) in B6D2F1 (BDF1) mice
Details: T/C endpoint: mean survival time, higher T/C = longer survival
[1] = dose: 30.0 mg/kg/injection, schedule: Q01DX001 (ip), vehicle: methylcellulose (MC)
[2] = dose: 60.0 mg/kg/injection, schedule: Q01DX001 (ip), vehicle: methylcellulose (MC)
[3] = dose: 90.0 mg/kg/injection, schedule: Q01DX001 (ip), vehicle: methylcellulose (MC)
[4] = dose: 100.0 mg/kg/injection, schedule: Q01DX001 (ip), vehicle: carboxymethylcellulose (CMC)
[5] = dose: 400.0 mg/kg/injection, schedule: Q01DX001 (ip), vehicle: saline
[6] = dose: 200.0 mg/kg/injection, schedule: Q01DX009 (ip), vehicle: saline
[7] = dose: 400.0 mg/kg/injection, schedule: Q01DX009 (ip), vehicle: saline
[8] = dose: 400.0 mg/kg/injection, schedule: Q04DX003 (ip), vehicle: saline
[9] = dose: 400.0 mg/kg/injection, schedule: Q01DX009 (ip), vehicle: Klucel (hydroxypropylcellulose) (HPC)
[10] = dose: 400.0 mg/kg/injection, schedule: Q04DX002 (ip), vehicle: Klucel (hydroxypropylcellulose) (HPC)
[11] = dose: 400.0 mg/kg/injection, schedule: Q01DX009 (ip), vehicle: saline with Tween-80
[12] = dose: 300.0 mg/kg/injection, schedule: Q01DX001 (ip), vehicle: saline
[13] = dose: 400.0 mg/kg/injection, schedule: Q04DX003 (ip), vehicle: Klucel (hydroxypropylcellulose) (HPC)
[14] = dose: 200.0 mg/kg/injection, schedule: Q04DX003 (ip), vehicle: Klucel (hydroxypropylcellulose) (HPC)

CCCCN=C(N)c1ccc(NC(=O)c2ccc(C(=O)Nc3ccc(C(N)=NCCCC)cc3)cc2)cc1
T/C (dose: 3.0 mg/kg/injection, schedule: Q01DX Z (ip), vehicle: methylcellulose (MC)): 145 % of control [5 of 6 alive]
survivor count (dose: 24.0 mg/kg/injection, schedule: Q01DX Z (ip), vehicle: methylcellulose (MC)): 0 of 6
T/C [1]: 109, 116, 120, 130, 142 % of control
survivor count [1]: 6 of 10
T/C [2]: 153 [9 of 10 alive], 160 [7 of 10 alive], 166 [5 of 6 alive], 171 % of control
survivor count [2]: 3 of 10 and 4 of 10
T/C [3]: 169 % of control [7 of 10 alive]
survivor count [3]: 3 of 10, 4 of 10, 6 of 10

CCCCOc1ccc(NC(N)=Nc2ccc(Cl)cc2)cc1
survivor count [4]: 0 of 4
survivor count (dose: 200.0 mg/kg/injection, schedule: Q01DX001 (ip), vehicle: carboxymethylcellulose (CMC)): 0 of 4
survivor count (dose: 400.0 mg/kg/injection, schedule: Q01DX001 (ip), vehicle: carboxymethylcellulose (CMC)): 0 of 4

CCCCC[As](=O)(O)CCCCC
T/C (dose: 20.0 mg/kg/injection, schedule: Q01DX001 (ip), vehicle: saline): 126 % of control [3 of 4 alive]
survivor count (dose: 50.0 mg/kg/injection, schedule: Q01DX001 (ip), vehicle: saline): 1 of 4
survivor count (dose: 80.0 mg/kg/injection, schedule: Q01DX001 (ip), vehicle: saline): 0 of 4
survivor count (dose: 200.0 mg/kg/injection, schedule: Q01DX001 (ip), vehicle: saline): 0 of 4
survivor count [5]: 0 of 4

CN(C)CCC=C1c2ccccc2C=Cc2ccccc21
survivor count (dose: 50.0 mg/kg/injection, schedule: Q01DX009 (ip), vehicle: saline): 1 of 6
survivor count (dose: 100.0 mg/kg/injection, schedule: Q01DX009 (ip), vehicle: saline): 0 of 6
survivor count (dose: 100.0 mg/kg/injection, schedule: Q04DX003 (ip), vehicle: saline): 3 of 4 (2×)
survivor count [6]: 0 of 6
survivor count (dose: 200.0 mg/kg/injection, schedule: Q04DX003 (ip), vehicle: saline): 0 of 4 and 1 of 4
survivor count [7]: 0 of 6
survivor count [8]: 0 of 4 (2×)

COc1cccnc1/C=N/NC(N)=S
T/C (dose: 3.13 mg/kg/injection, schedule: Q01DX009 (ip), vehicle: saline with Tween-80): 131 % of control
T/C (dose: 6.25 mg/kg/injection, schedule: Q01DX009 (ip), vehicle: saline with Tween-80): 142 % of control
survivor count (dose: 100.0 mg/kg/injection, schedule: Q04DX002 (ip), vehicle: saline with Tween-80): 0 of 3
survivor count (dose: 200.0 mg/kg/injection, schedule: Q04DX002 (ip), vehicle: saline with Tween-80): 0 of 3
survivor count (dose: 400.0 mg/kg/injection, schedule: Q04DX002 (ip), vehicle: saline with Tween-80): 0 of 3

NCc1c(Cl)cccc1[N+](=O)[O-]
survivor count [9]: 0 of 6
survivor count [10]: 1 of 6
survivor count (dose: 400.0 mg/kg/injection, schedule: Q04DX002 (ip), vehicle: saline): 0 of 3

CC1(C)C2CCC1(C)C(Oc1ccccc1)C2 (stereo unspecified)
survivor count [11]: 6 of 6

NC(=O)c1ccccc1Nc1ccc([N+](=O)[O-])cc1[N+](=O)[O-]
survivor count (dose: 70.0 mg/kg/injection, schedule: Q01DX Z (ip), vehicle: carboxymethylcellulose (CMC)): 6 of 6
survivor count (dose: 100.0 mg/kg/injection, schedule: Q01DX Z (ip), vehicle: carboxymethylcellulose (CMC)): 4 of 6

O=C(NCCC[P+](c1ccccc1)(c1ccccc1)c1ccccc1)OCc1ccccc1
survivor count (dose: 50.0 mg/kg/injection, schedule: Q01DX009 (ip), vehicle: carboxymethylcellulose (CMC)): 0 of 3 and 0 of 6
survivor count [4]: 0 of 3 and 1 of 6
survivor count (dose: 100.0 mg/kg/injection, schedule: Q04DX003 (ip), vehicle: carboxymethylcellulose (CMC)): 0 of 3 and 0 of 6

CCC(C)n1c(C)cc(=O)n1C(C)CC (stereo unspecified)
survivor count (dose: 75.0 mg/kg/injection, schedule: Q01DX001 (ip), vehicle: saline): 2 of 6
survivor count (dose: 150.0 mg/kg/injection, schedule: Q01DX001 (ip), vehicle: saline): 0 of 6
survivor count [12]: 0 of 6

C=CCOc1ccc2c(cc1=O)C(NC(C)=O)CCc1cc(OC)c(OC)c(OC)c1-2 (stereo unspecified)
T/C (dose: 18.75 mg/kg/injection, schedule: Q01DX009 (ip), vehicle: Klucel (hydroxypropylcellulose) (HPC)): 142 % of control
survivor count (dose: 37.5 mg/kg/injection, schedule: Q01DX009 (ip), vehicle: Klucel (hydroxypropylcellulose) (HPC)): 6 of 6
survivor count (dose: 75.0 mg/kg/injection, schedule: Q01DX009 (ip), vehicle: Klucel (hydroxypropylcellulose) (HPC)): 2 of 6

Cc1cc([N+](=O)[O-])ccc1NS(=O)(=O)c1ccccc1
survivor count [13]: 6 of 6

CCC(O)C(CCN(C)C)(C(=O)N(C)C)c1ccccc1 (stereo unspecified)
survivor count [12]: 0 of 6

O=C1NC(=O)C(c2ccc(Cl)cc2)(c2ccc(Cl)cc2)N1
T/C (dose: 100.0 mg/kg/injection, schedule: Q01DX009 (ip), vehicle: Klucel (hydroxypropylcellulose) (HPC)): 126 % of control [5 of 6 alive]

O=C(CSC1=NCCN1)c1ccccc1
survivor count (dose: 200.0 mg/kg/injection, schedule: Q01DX009 (ip), vehicle: saline with Tween-80): 2 of 6
survivor count [11]: 0 of 6

CCC(C)c1nc2c(c(=O)n(C)c(=O)n2C)n1C (stereo unspecified)
survivor count (dose: 100.0 mg/kg/injection, schedule: Q01DX001 (ip), vehicle: saline): 4 of 4

CNC(=O)Nc1ccccc1[N+](=O)[O-]
survivor count [10]: 0 of 3

Clc1ccc2nsnc2c1
survivor count (dose: 400.0 mg/kg/injection, schedule: Q01DX001 (ip), vehicle: Klucel (hydroxypropylcellulose) (HPC)): 0 of 6

CSc1ccc(NC(=O)Sc2ccccc2C)cc1
survivor count (dose: 150.0 mg/kg/injection, schedule: Q01DX009 (ip), vehicle: Klucel (hydroxypropylcellulose) (HPC)): 1 of 3
survivor count (dose: 200.0 mg/kg/injection, schedule: Q01DX009 (ip), vehicle: Klucel (hydroxypropylcellulose) (HPC)): 5 of 6
survivor count [9]: 1 of 6 and 3 of 3

Cc1c(Cl)cccc1N1C(=O)CC(Sc2ccccc2N)C1=O (stereo unspecified)
survivor count [14]: 6 of 6
survivor count [9]: 6 of 6

C[N+](C)(Cc1ccccc1)CC(O)COc1ccccc1 (stereo unspecified)
survivor count (dose: 100.0 mg/kg/injection, schedule: Q01DX001 (ip), vehicle: saline with Tween-80): 0 of 6
survivor count (dose: 200.0 mg/kg/injection, schedule: Q01DX001 (ip), vehicle: saline with Tween-80): 1 of 6
survivor count (dose: 400.0 mg/kg/injection, schedule: Q01DX001 (ip), vehicle: saline with Tween-80): 0 of 6

C=C(Br)C(C)N (stereo unspecified)
survivor count [6]: 1 of 6
survivor count [7]: 0 of 6

OC1COC(Cl)C(O)C1O (stereo unspecified)
survivor count (dose: 400.0 mg/kg/injection, schedule: Q04DX003 (ip), vehicle: saline with Tween-80): 0 of 6

CCCc1c(N)nc(=S)[nH]c1C(=O)O
survivor count [8]: 6 of 6

O=[N+]([O-])c1cc(Cl)c(Cl)cc1[N+](=O)[O-]
survivor count (dose: 300.0 mg/kg/injection, schedule: Q04DX002 (ip), vehicle: Klucel (hydroxypropylcellulose) (HPC)): 0 of 3

CC1(C)C(=NNC(N)=O)C(C)(C)C1=NNC(N)=O
survivor count [14]: 6 of 6
survivor count [13]: 6 of 6

CCCP(=S)(CCC)Oc1ccc([N+](=O)[O-])cc1
survivor count [12]: 0 of 6

N#CC(NC(=O)NCCCl)c1ccccc1 (stereo unspecified)
survivor count [13]: 3 of 6

O=C(O)c1cccc(-c2ccccc2)c1O
survivor count [5]: 0 of 4

O=C(O)C1CC2c3ccccc3C1c1ccccc12 (stereo unspecified)
survivor count [14]: 6 of 6
survivor count [13]: 6 of 6
